In all, about 52,000 sequences went through this assay and about 210 (0.4%) were called active.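 Rule for the calls: active = gene whose silencing raises cell survival under the drug, median off-target-corrected z-score across its silencing RNAs 2 or more; inactive = the rest.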 Some of the results follow.

Data on 66 sequences can be found in PubChem BioAssay AID1347423 (Functional Genomics Laboratory (NCATS/FGL), 2020).

The assay can be described thus: Resistance to Poly (ADP-Ribose) Polymerase inhibitor: Gene Identification via Genome-wide siRNA Screen. The note with it: mouse BRCA2 R2336H ES cells, olaparib, CellTiter-Glo viability; active compounds read high. The text has this:
The role of Poly (ADP-Ribose) Polymerase (PARP) proteins in DNA repair has been elegantly utilized for the synthetic lethality-based treatment of BRCA-deficient tumors by PARP inhibitors. PARP inhibitors are now being used for treatment of BRCA-deficient breast and ovarian cancers. […] While several mechanisms of drug resistance have been identified, majority of these tumors develop drug resistance due to unknown causes. To identified novel regulators of chemo-resistance in BRCA2-mutated cells, we performed a genome wide siRNA library screen. We have found ES cells expressing a hypomorphic allele of BRCA2 to be hypersensitive to PAPP inhibitors (such as olaparib). We used ES cells expressing a mutant allele of BRCA2 that has a single amino acid substitution at position 2336 (arginine to histidine, R2336H). The screen was conducted using an Ambion (Thermo) Silencer Mouse Genome siRNA collection. The library targets 17,575 mouse genes with 3 siRNAs per gene. TET2 (E130014J05Rik) was identified as a top candidate.
Transfections were performed in 384 well plates (Corning 3707). Plates were coated with 0.1% gelatin in H2O overnight at ambient temperature. Gelatin solution was aspirated (BioTek EL406) and siRNAs were printed using a Bravo VPrep liquid handler integrated within a BioCel automation platform (Agilent). Cell viability was measured using CellTiter Glo (Promega). For transfections, […] of serum free media containing Lipofectamine RNAiMax […] was added to wells containing siRNA (0.8pmol). Lipid and siRNA were allowed to complex for 45 min at ambient temperature before addition of 1000 cells in DMEM, 30% FBS to yield final transfection mixtures containing 20 nM siRNA in DMEM, 15% FBS. PARPi (olaparib, AZD2281) was added 48 h post-transfection (500 nM) and viability (CellTiter Glo, Promega) was assayed 72 h later on a PerkinElmer Envision 2104 Multilabel plate reader. Ambion Silencer Select Negative Control #2 was incorporated on all screening plates (16 wells) and the median negative control value on each plate was used for normalization. An siRNA targeting Trp53 was used as a positive control. This control yielded a median protective effect of ~1.9 fold versus negative control throughout the screen. The median absolute deviation (MAD) based z-score was calculated for each siRNA. Genes were then ranked by taking the median value for all siRNAs tested against a given gene. Scores were also adjusted for seed-based off-target effects to help deprioritize likely false positives.
A general note: ATP-based viability assays read luminescence as a measure of living cells.
Turning to “GGUACAGGUUCCUGUGAAUTT against 1700054O13Rik”, the z-score is inactive: 0.622.
For CCCGUAACAAGAAUUAGCGTT against Mccc2, the z-score was inactive: -0.0187.
For the sequence CCAGACGAGGAGAACAUCATT against BC042901, the z-score was inactive: -0.0813.
As to GGCAACUCUUGAAGACUUGTT against Gdf15, the z-score was inactive: -0.418.
GGAUCGAUCUGUUGAACAGTT against Dag1: the z-score is inactive: -0.693.
On to GGGAAUAUUUGAAAUUCCATT against Usp54, for which the z-score was inactive: 0.95.
Regarding “GCCGUAUCACCCUAAACUATT against C130099A20Rik”, the z-score is inactive: 0.667.
For GGGAGAUCAAUCAUUACUUTT against Olfr332, the z-score was inactive: -0.388.
Turning to GGUCACAAGAAGAGCUUUUTT against Eppk1, the z-score is inactive: -0.954.
The figure for GGGAAGAGAGACGAAAAAATT against Nufip1 is inactive: -0.539; for UCAGCUGGUUUUAAUCUCUTT against Olfr1029 it is inactive: -0.485.
Take GUCCCAGUACCUCAUUUUUTT against V1rc26: the z-score is inactive: 0.689.
Next, “GGAGACAGAGCAUGUGGUATT against 1200015N20Rik”: inactive: -0.63; “GGAGAACCAUGAGAGGGACTT against 1700037C18Rik”: inactive: -0.111; GGAGACAAAGACUUGUAAGTT against BC050188: inactive: 1.29.
Take GGACAUUAGGAAAUUAGAUTT against Ppp3cc: the z-score was inactive: 0.289.
As for “GGGAAAACUACGCAAGAGCTT against 1500010G04Rik”, the z-score was inactive: 0.545.
For the sequence CGAUUGACUUAAGAUUCAGTT against Hlf, the z-score is inactive: 0.303.
GCGACUUGCUGAAUGAUUUTT against Pfkm: the z-score was inactive: -0.213.
As for CCCUCAGCAGUUUAUGGAUTT against Kin, the z-score was inactive: 0.168.
For CCGUCCAAAUCCUUAUUGATT against Pcdhb2, the z-score is inactive: -0.068.
Next, GCUUUAGAAUUCCAUACGATT against Zfp114: inactive: 0.903.
As to “GAAUGAAGUGUUAUCCUGUTT against 1110017O22Rik”, the z-score is inactive: -0.885.
Regarding CCCUCGAGUGACCAUAGUGTT against MGC79224, the z-score is inactive: 0.723.
With GGGUUUACAAAAGAAUAUGTT against Nck2, the z-score is inactive: 1.24.
In the case of CCAGCAACCUUAAGAAAUUTT against Ppp2r1a, the z-score is inactive: -1.55.
As for GGGACAGCAAAGAAGAUAATT against Rrad, the z-score was inactive: -1.21.
Turning to GGUGAUGAAGAUUUCAAAGTT against Tcf7, the z-score is inactive: 1.36.
Next, GGAUGUGCUCUGUGAAUGCTT against Pgf: inactive: -1.
Regarding “CCGAGAGUUAACCUCAAAATT against 4931440P22Rik”, the z-score is inactive: 0.912.
Next, GGGAUUAAUACAGCAAUUUTT against Ddx24: inactive: -2.06; GGGUAUGGUUCUGUUGGCATT against Pxmp4: inactive: 0.275.
Turning to “GGCUGUGUAUGAAACAUUUTT against E430021N18Rik”, the z-score was inactive: 0.949.
For the sequence GGGCAUGAUUUUCACUUCCTT against Gpr150, the z-score was inactive: 0.284.
Take GCUGCAUUGUGGAUUAUAUTT against Thumpd1: the z-score is inactive: -0.56.
The figure for GGAGAUAUGGAAGAAGACATT against Pja2 is inactive: -0.828.
With “GGGACACUGGGAAGAAACATT against 2810021J22Rik”, the z-score was inactive: -2.45.
On to “GGAGGGAAUAUGCAAAUAGTT against E330017A01Rik”, for which the z-score was inactive: 0.773.
For “CCGAAUGACGGUUGAAUAUTT against 9430034D17Rik”, the z-score is inactive: -2.39.
For the sequence CGAUAAGGGCUGUUUAUAUTT against Rnasel, the z-score is inactive: 0.92.
Regarding GGGAAAAAUGGACUAGCAUTT against Elys, the z-score was inactive: -1.68.
On to GGUCUUCGAUGUCUUGUAGTT against Fbxl11, for which the z-score was inactive: 0.0439.
With GGUUACUCUCCAGAUGAAATT against Srpx2, the z-score is inactive: 1.27.
Regarding GGGAUGAUUUUGAGAUUUUTT against Dm15, the z-score is inactive: 0.206.
Consider GGUGACUCGGCUAUUUUCCTT against DXImx40e, for which the z-score was inactive: 2.21.
On to GGUCAUUCUGGCUUAGUAATT against Hira, for which the z-score is inactive: -1.7.
As to GGACAUCAGAUGAGAAUGUTT against Rab19, the z-score was inactive: -1.78.
On to GGCUAUUCCUUUGUGACCATT against Actg2, for which the z-score was inactive: -0.271.
Next, GGAUCUGGACUUAAUGCUCTT against Tcfeb: inactive: 1.46.
Next, GGUUGUCAAAGUCAAACCATT against H1f0: inactive: -0.503; “GCAGUAUGAGGUAAAUUAUTT against 9430069J07Rik”: inactive: 0.127.
Take CGAAGCCUAUCGAAAAGUCTT against Adcyap1: the z-score is inactive: -1.35.
For GGGUACCUAGGGUUAUGAATT against Hps6, the z-score was inactive: 0.234.
As for GGUUUGAGAAUUUGAAGGUTT against Gtlf3a, the z-score is inactive: 0.33.
The figure for CCUAUAACUCCAAGGAUACTT against MGC58608 is inactive: -0.461.
On to “GGCUUUAUAAUGUUCUGUUTT against 1810009B06Rik”, for which the z-score is inactive: -2.16.
Turning to CCUCAAUUGCAUGUGACCUTT against Itgb1bp1, the z-score was inactive: -0.642.
In the case of GAAUCACAGGACUUCUGCATT against Bcl2, the z-score was inactive: 0.797.
With GCAAGAAGUUCCUAUCAUCTT against Polr2b, the z-score was inactive: -2.2.
The figure for GGAACAUGUCCAUUAUCACTT against V1re4 is inactive: 1.5; for GGAGAAAUUUAAGAAGAGUTT against Xrcc5 it is inactive: 1.05.
Turning to GGUUGAAAUUCGGAAAAAATT against Mnat1, the z-score was inactive: 0.674.
On to GCUCCACAUGAGAUUCUCATT against Sec14l1, for which the z-score was inactive: -0.222.
Consider GGCACCUUUCAACGUAACCTT against Ntn3, for which the z-score was inactive: 0.321.
On to GCAAACUUUUUCUGUAAAGTT against Apg4a, for which the z-score is inactive: -0.649.
For the sequence GCAGCGAGUACUAUAUCCGTT against BC059845, the z-score is inactive: 0.321.
